These are yes or no findings as the source states them, for the method shown. For part of these data: Binding seen in cells or lysates may run through a third protein. Some entries that bind do so weakly or less than the wild type. For part of these data: Where a sequence is shown, tags or fusion partners need not be part of it.

Assay [1] addresses T1, 35S-labeled Snow1 (full-length snow1 in pGEM-T easy, in vitro transcribed and translated) (Arabidopsis) (UniProt Q9LTC4).
T1 sequence (chain, 35S-methionine label): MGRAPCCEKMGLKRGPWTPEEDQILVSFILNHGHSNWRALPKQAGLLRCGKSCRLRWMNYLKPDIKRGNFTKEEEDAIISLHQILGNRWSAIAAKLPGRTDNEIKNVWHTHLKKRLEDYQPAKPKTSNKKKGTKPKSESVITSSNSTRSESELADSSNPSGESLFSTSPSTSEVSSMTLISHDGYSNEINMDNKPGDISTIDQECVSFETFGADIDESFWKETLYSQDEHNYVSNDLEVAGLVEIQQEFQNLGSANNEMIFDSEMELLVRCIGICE
The experiment in a line: in vitro S-tag pull-down.

The target of assay [2] is T1, 35S-labeled Snow1 (full-length snow1 in pGEM-T easy, in vitro transcribed and translated) (Arabidopsis). The experiment in a line: in vitro S-tag pull-down, autoradiography.
The target in assay [3] is T2, HA-Snow1 (Arabidopsis) (UniProt Q9LTC4).
T2 sequence: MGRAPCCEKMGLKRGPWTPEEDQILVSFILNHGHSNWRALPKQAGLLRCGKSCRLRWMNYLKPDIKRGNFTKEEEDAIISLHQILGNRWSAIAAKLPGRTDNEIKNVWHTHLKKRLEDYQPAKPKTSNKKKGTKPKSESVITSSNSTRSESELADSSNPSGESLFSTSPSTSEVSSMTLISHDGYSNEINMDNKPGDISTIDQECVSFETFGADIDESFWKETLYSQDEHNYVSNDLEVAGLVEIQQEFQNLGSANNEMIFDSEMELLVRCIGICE
The experiment in a line: co-immunoprecipitation from Arabidopsis protoplasts with anti c-Myc antibodies, blot probed with anti HA antibodies.

In assay [4] the target is T3, C-terminal region (corresponding to 266-494 amino acids) of Ice1 cloned in pAS2 vector (bait vector) (Arabidopsis) (UniProt Q9LSE2).
T3 sequence: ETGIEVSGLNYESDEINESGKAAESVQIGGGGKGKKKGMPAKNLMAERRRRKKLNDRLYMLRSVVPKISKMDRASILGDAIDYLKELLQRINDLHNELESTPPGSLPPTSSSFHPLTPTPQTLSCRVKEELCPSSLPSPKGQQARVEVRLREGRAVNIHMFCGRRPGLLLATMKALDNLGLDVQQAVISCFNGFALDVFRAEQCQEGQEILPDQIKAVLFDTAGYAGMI
The experiment in a line: yeast two-hybrid.

Assay [5] has as its target T4, Region corresponding to 358-494 amino acids of Ice1, deletion of the C-terminal portion cloned in pAS2 vector (bait) (Arabidopsis) (UniProt Q9LSE2).
T4 sequence: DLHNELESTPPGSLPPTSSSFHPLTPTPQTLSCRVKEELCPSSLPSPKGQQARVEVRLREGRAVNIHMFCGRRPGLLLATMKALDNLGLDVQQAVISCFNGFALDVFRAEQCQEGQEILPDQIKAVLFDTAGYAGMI
The experiment in a line: yeast two-hybrid.

For assay [6], the target named is T3, C-terminal region (corresponding to 266-494 amino acids) of Ice1 cloned in pAS2 vector (bait vector) (Arabidopsis). The experiment in a line: yeast two-hybrid, beta-Gal activity.
Assay [7] concerns the target T4, Region corresponding to 358-494 amino acids of Ice1, deletion of the C-terminal portion cloned in pAS2 vector (bait) (Arabidopsis). The experiment in a line: yeast two-hybrid, beta-Gal activity.
Assay [8] concerns the target T5, S-tag-Ice1 (full-length Ice1 cloned in pCITE4a, in vitro translated) (Arabidopsis) (UniProt Q9LSE2).
T5 sequence: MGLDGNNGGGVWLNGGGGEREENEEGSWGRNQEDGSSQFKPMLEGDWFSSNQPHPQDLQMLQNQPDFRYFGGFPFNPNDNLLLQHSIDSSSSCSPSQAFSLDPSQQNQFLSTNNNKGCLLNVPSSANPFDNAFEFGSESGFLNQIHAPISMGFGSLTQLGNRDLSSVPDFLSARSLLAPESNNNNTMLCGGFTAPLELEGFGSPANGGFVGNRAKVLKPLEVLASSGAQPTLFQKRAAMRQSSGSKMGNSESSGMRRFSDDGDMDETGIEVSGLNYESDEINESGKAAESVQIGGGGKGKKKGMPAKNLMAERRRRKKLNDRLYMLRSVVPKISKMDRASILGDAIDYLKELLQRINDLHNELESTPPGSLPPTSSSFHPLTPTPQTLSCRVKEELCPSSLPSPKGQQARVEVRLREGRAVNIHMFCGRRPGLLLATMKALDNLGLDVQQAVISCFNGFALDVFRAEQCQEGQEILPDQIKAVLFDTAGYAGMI
The experiment in a line: in vitro GST pull-down.

Assay [9] addresses T5, S-tag-Ice1 (full-length Ice1 cloned in pCITE4a, in vitro translated) (Arabidopsis). The experiment in a line: in vitro GST pull-down, autoradiography.

B1: S-tag-Ice1 (full-length Ice1 cloned in pCITE4a, in vitro translated) (protein, not shown: small tags and cut ends)
chain: MGLDGNNGGGVWLNGGGGEREENEEGSWGRNQEDGSSQFKPMLEGDWFSSNQPHPQDLQMLQNQPDFRYFGGFPFNPNDNLLLQHSIDSSSSCSPSQAFSLDPSQQNQFLSTNNNKGCLLNVPSSANPFDNAFEFGSESGFLNQIHAPISMGFGSLTQLGNRDLSSVPDFLSARSLLAPESNNNNTMLCGGFTAPLELEGFGSPANGGFVGNRAKVLKPLEVLASSGAQPTLFQKRAAMRQSSGSKMGNSESSGMRRFSDDGDMDETGIEVSGLNYESDEINESGKAAESVQIGGGGKGKKKGMPAKNLMAERRRRKKLNDRLYMLRSVVPKISKMDRASILGDAIDYLKELLQRINDLHNELESTPPGSLPPTSSSFHPLTPTPQTLSCRVKEELCPSSLPSPKGQQARVEVRLREGRAVNIHMFCGRRPGLLLATMKALDNLGLDVQQAVISCFNGFALDVFRAEQCQEGQEILPDQIKAVLFDTAGYAGMI
For B1, the binding result in assay [1] and in [2] was “binds” in each case.

B2: Myc-Ice1 (protein, not shown: small tags and cut ends)
chain: MGLDGNNGGGVWLNGGGGEREENEEGSWGRNQEDGSSQFKPMLEGDWFSSNQPHPQDLQMLQNQPDFRYFGGFPFNPNDNLLLQHSIDSSSSCSPSQAFSLDPSQQNQFLSTNNNKGCLLNVPSSANPFDNAFEFGSESGFLNQIHAPISMGFGSLTQLGNRDLSSVPDFLSARSLLAPESNNNNTMLCGGFTAPLELEGFGSPANGGFVGNRAKVLKPLEVLASSGAQPTLFQKRAAMRQSSGSKMGNSESSGMRRFSDDGDMDETGIEVSGLNYESDEINESGKAAESVQIGGGGKGKKKGMPAKNLMAERRRRKKLNDRLYMLRSVVPKISKMDRASILGDAIDYLKELLQRINDLHNELESTPPGSLPPTSSSFHPLTPTPQTLSCRVKEELCPSSLPSPKGQQARVEVRLREGRAVNIHMFCGRRPGLLLATMKALDNLGLDVQQAVISCFNGFALDVFRAEQCQEGQEILPDQIKAVLFDTAGYAGMI
Consider B2, for which the binding result in assay [3] is recorded as “binds”.

B3: Full-length Snow1 cloned in pACT2 vector (prey vector) (protein, not shown: large carriers)
chain: MGRAPCCEKMGLKRGPWTPEEDQILVSFILNHGHSNWRALPKQAGLLRCGKSCRLRWMNYLKPDIKRGNFTKEEEDAIISLHQILGNRWSAIAAKLPGRTDNEIKNVWHTHLKKRLEDYQPAKPKTSNKKKGTKPKSESVITSSNSTRSESELADSSNPSGESLFSTSPSTSEVSSMTLISHDGYSNEINMDNKPGDISTIDQECVSFETFGADIDESFWKETLYSQDEHNYVSNDLEVAGLVEIQQEFQNLGSANNEMIFDSEMELLVRCIGICE
For B3, the binding entry in assay [4], in assay [5], in assay [6] and in [7] was “binds” in each case.

B4: GST-fused Snow1 (protein, not shown: a dimerising Fc or GST)
chain: MGRAPCCEKMGLKRGPWTPEEDQILVSFILNHGHSNWRALPKQAGLLRCGKSCRLRWMNYLKPDIKRGNFTKEEEDAIISLHQILGNRWSAIAAKLPGRTDNEIKNVWHTHLKKRLEDYQPAKPKTSNKKKGTKPKSESVITSSNSTRSESELADSSNPSGESLFSTSPSTSEVSSMTLISHDGYSNEINMDNKPGDISTIDQECVSFETFGADIDESFWKETLYSQDEHNYVSNDLEVAGLVEIQQEFQNLGSANNEMIFDSEMELLVRCIGICE
B4: the binding entry in assay [8] and in assay [9] was “binds” each time.

(Values after patent US20050144671A1 (ARIZONA BD OF REGENTS BEHALF OF UNIV OF ARIZONA, published 2005).)
